Assay results reported in patent publication US9528133B2, “Compositions and methods for producing chemicals and derivatives thereof” (SYNTHETIC GENOMICS, INC., priority 2012, dated 2016).
At least one compound was matched to its structure with a doubt left.

Legend:
Format in all cases: biochemical
Conditions in all cases: purified His-tagged enzyme; 100 mM TrisHCl, pH 8.0, 50 mM NaCl, 0.75 mM NAD+
[1] = test system: Agrobacterium uronate dehydrogenase 474 (EC 1.1.1.203, pSGI #474, Gene ID #8807; SEQ ID NOs: 1-3 cover 474, 475 and 476); assay: Kinetic measurements of purified uronate dehydrogenase 474 (NADH formation at 340 nm, Lineweaver-Burk)
[2] = test system: Pseudomonas uronate dehydrogenase 476 (EC 1.1.1.203, pSGI #476, Gene ID #1770; SEQ ID NOs: 1-3 cover 474, 475 and 476); assay: Kinetic measurements of purified uronate dehydrogenase 476 (NADH formation at 340 nm, Lineweaver-Burk)
[3] = test system: Rhizobium uronate dehydrogenase 475 (EC 1.1.1.203, pSGI #475, Gene ID #8958; SEQ ID NOs: 1-3 cover 474, 475 and 476); assay: Kinetic measurements of purified uronate dehydrogenase 475 (NADH formation at 340 nm, Lineweaver-Burk)

Row | Compound | Km [1] | Vmax [1] | Km [2] | Vmax [2] | Km [3] | Vmax [3]
1 | O=C(O)[C@H]1OC(O)[C@H](O)[C@@H](O)[C@@H]1O (stereo partly drawn) [Glucuronate, glucuronate] | 0.37 mM | 128.2 µM/min/mg | 0.34 mM | 90.9 µM/min/mg | 0.22 mM | 47.4 µM/min/mg
2 | O=C(O)[C@@H]1OC(O)[C@@H](O)[C@@H](O)[C@@H]1O (stereo partly drawn) [Guluronate, guluronate] | – | 0.017 µM/min/mg | – | 0.014 µM/min/mg | – | 0.016 µM/min/mg
3 | O=C(O)[C@@H]1OC(O)[C@H](O)[C@@H](O)[C@@H]1O (stereo partly drawn) [Iduronate, L-iduronate] | 29.8 mM | 0.96 µM/min/mg | 29.6 mM | 1.36 µM/min/mg | 42.1 mM | 0.59 µM/min/mg
